PubChem BioAssay AID504791 – Drosophila RNAi Screening Center, 2011
In all, the deposit lists about 23,000 reagents; below is a random part of those with a known target gene and a result. Of all reagents, 199 (0.86%) were called active. 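Plate-scaled ratios behind the calls are not deposited; printed light signals are raw; many rows marked increased or decreased are still called inactive.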 A plus sign joins genes that one reagent is predicted to hit.

Assay: 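Genes whose knock-down strengthens or weakens small-RNA reporter silencing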 (primary screen)
Cells: Drosophila S2-derived reporter cells
Knock-down reagent: long dsRNA against Drosophila genes, about 150-250 ng dsRNA per well (siRNA assay); about 80-120 ng (miRNA assay)
Timing: about 5 days (siRNA assay); about 4 days (miRNA assay)
Conditions: copper sulfate induction of reporters: 25 µM (siRNA assay); 200 mM stated (miRNA assay), 1-2 days before reading
Detection: 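Per-well ratio of Renilla over firefly light, expressed relative to that plate's average ratio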
Reading the numbers: siRNA reporter hit score: higher = 3 marks a strong hit with raised ratio; -3 a strong hit with lowered ratio
Rule for the call: 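First-pass picks had plate-scaled ratios over 1.5 for the siRNA assay, over 1.6 for the miRNA assay, or under 0.6; two distinct dsRNAs had to score alike on retest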

target gene | PubChem SID | siRNA reporter hit score | stable siRNA reporter change | miRNA reporter change | stable assay Renilla, run 1 (luminescence) | stable assay firefly, run 1 (luminescence) | call
G9a | SID104198411 | – | – | – | 6880 | 3.09e5 | inactive
FucTA (alpha1,3-fucosyltransferase A) | SID104190525 | – | – | – | 7206 | 2.88e5 | inactive
CG34458 | SID104186717 | – | – | – | 6495 | 2.73e5 | inactive
CG34135 | SID104192494 | – | – | – | 6022 | 4.13e5 | inactive
mud (mushroom body defect) | SID104198811 | – | – | – | 4691 | 4.07e5 | inactive
put (punt) | SID104196831 | – | – | – | 9030 | 3.90e5 | inactive
koi (klaroid) | SID104184772 | – | – | – | 6350 | 3.66e5 | inactive
VhaAC39-2 (Vacuolar H[+] ATPase AC39 subunit 2) | SID104195401 | – | – | – | 7243 | 3.27e5 | inactive
trus (toys are us) | SID104195564 | – | – | – | 6132 | 4.50e5 | inactive
Nepl17 (Neprilysin-like 17) | SID104194672 | – | – | – | 6387 | 3.23e5 | inactive
Cyp12a4 (Cytochrome P450 12a4) | SID104196412 | – | – | – | 6468 | 3.06e5 | inactive
CG17672 | SID104189022 | – | – | – | 2792 | 2.08e5 | inactive
CG17672 | SID104190070 | – | – | – | 7822 | 5.04e5 | inactive
eIF2gamma (eukaryotic translation initiation factor 2 subunit gamma) | SID104192873 | – | reporter ratio lowered past the hit cutoff | reporter ratio raised past the hit cutoff | 3400 | 5.63e5 | inactive
eIF2gamma (eukaryotic translation initiation factor 2 subunit gamma) | SID104196665 | – | reporter ratio lowered past the hit cutoff | – | 8731 | 1.40e6 | active
CG14717 | SID104194732 | – | – | – | 6815 | 3.63e5 | inactive
polybromo | SID104194099 | – | – | – | 6680 | 2.83e5 | inactive
Letm1 | SID104184268 | – | – | – | 1.39e5 | 1.44e6 | inactive
CG13315 | SID104189778 | – | – | – | 6435 | 5.62e5 | inactive
Cht7 (Chitinase 7) | SID104188330 | – | – | – | 8719 | 5.19e5 | inactive
Cht7 (Chitinase 7) | SID104201444 | – | – | – | 10067 | 5.12e5 | inactive
ema (endosomal maturation defective) | SID104194328 | – | – | – | 7043 | 4.56e5 | inactive
raskol | SID104198994 | – | – | – | 4812 | 3.45e5 | inactive
raskol | SID104199523 | – | – | – | 5894 | 5.34e5 | inactive
raskol | SID104199756 | – | – | – | 6283 | 5.49e5 | inactive
raskol | SID104199759 | – | – | – | 3979 | 2.65e5 | inactive
raskol | SID104201449 | – | – | – | 9463 | 4.54e5 | inactive
Nepl21 (Neprilysin-like 21) | SID104193925 | – | – | – | 8494 | 6.56e5 | inactive
Gr39a (Gustatory receptor 39a) | SID104181633 | – | – | – | 7343 | 5.56e5 | inactive
Gr39a (Gustatory receptor 39a) | SID104181634 | – | – | – | 8191 | 5.79e5 | inactive
sro (shroud) | SID104194261 | – | – | – | 3584 | 3.83e5 | inactive
Kpc2 (Kip1 ubiquitination-promoting complex subunit 2) | SID104187427 | – | – | – | 5012 | 2.58e5 | inactive
BomS5 (Bomanin Short 5) | SID104201815 | – | – | – | 9552 | 4.74e5 | inactive
Tak1 (TGF-beta activated kinase 1) | SID104200182 | – | – | – | 3975 | 3.88e5 | inactive
Tak1 (TGF-beta activated kinase 1) | SID104200353 | – | – | – | 6260 | 4.73e5 | inactive
Tak1 (TGF-beta activated kinase 1) | SID104200354 | – | – | – | 6380 | 5.36e5 | inactive
Ir94b (Ionotropic receptor 94b) | SID104201183 | – | – | – | 10090 | 4.72e5 | inactive
CG6978 | SID104198201 | 3 | – | – | 6344 | 3.64e5 | inactive
CG17198 + CG17197 | SID104194982 | – | – | – | 7878 | 3.85e5 | inactive
CG17198 + CG17197 | SID104194983 | – | – | – | 7850 | 4.72e5 | inactive
CG4218 | SID104181731 | – | – | – | 6422 | 4.41e5 | inactive
Rpp30 (RNaseP protein p30) | SID104180112 | – | – | – | 9902 | 2.32e5 | inactive
CG15461 | SID104200324 | – | – | – | 6150 | 4.19e5 | inactive
CG30122 | SID104186568 | – | – | – | 10772 | 2.85e5 | inactive
CG30122 | SID104186727 | – | – | – | 8793 | 3.22e5 | inactive
CG31446 | SID104192903 | – | – | – | 4216 | 3.92e5 | inactive
alpha-Man-IIb (alpha-Mannosidase class II b) | SID104196690 | – | – | – | 9132 | 4.17e5 | inactive
CG33003 | SID104201892 | – | – | – | 4719 | 4.57e5 | inactive
swa (swallow) | SID104198634 | – | – | – | 7294 | 3.07e5 | inactive
CG6356 | SID104195818 | – | – | – | 6692 | 3.38e5 | inactive
OdsH (Ods-site homeobox) | SID104200055 | – | – | – | 5991 | 5.29e5 | inactive
escl | SID104182620 | – | – | – | 24558 | 1.58e6 | inactive
CG14286 | SID104194559 | – | – | – | 7038 | 3.73e5 | inactive
Uggt (UDP-glucose-glycoprotein glucosyltransferase) | SID104191107 | – | – | – | 8207 | 2.45e5 | inactive
feo (fascetto) | SID104199190 | – | – | – | 3807 | 3.96e5 | inactive
Ret (Ret oncogene) | SID104183201 | – | – | – | 10811 | 1.27e6 | inactive
Ret (Ret oncogene) | SID104183202 | – | – | – | 7131 | 3.63e5 | inactive
